Data as given in PubChem BioAssay AID493014 (National Center for Advancing Translational Sciences (NCATS), 2011).
The list shows a part of the results. The main result of the screen is listed elsewhere. These columns were measured beside it and carry no call. Compounds called inactive in the main read-out are mostly missing here. Words in brackets tell the shape of the fitted curve; partial curves, single points and poor fits give uncertain potencies.

Assay: qHTS Assay to Find Inhibitors of Chronic Active B-Cell Receptor Signaling
Conditions: ABC-DLBCL IkBa-CBG/CBR reporter, luminescence ratio (green luciferase fused to IkBa over red control in TMD8 lymphoma cells), 4 h
Outline: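 TMD8 human ABC-DLBCL cells with doxycycline-inducible IκBα–green luciferase fusion and unfused red luciferase, in 0.5% FBS medium; compounds up to 46 uM, 4 h at 37C. Green/red luminescence ratio, filter-overlap corrected, fitted to concentration-response curves.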

[1] = measured here: CBR red luminescence, cell number
[2] = measured here: IkBa-CBG green luminescence

| SMILES | AC50 [1] | AC50 [2] |
| --- | --- | --- |
| Nc1ccccc1NC1CCCCC1 | 12.6 µM [falling, partial curve, poor fit] | – |
| CC(CCc1ccccc1)OS(N)(=O)=O (stereo not drawn) | 8.91 µM [rising, single point] | – |
| O=C(CSc1n[nH]c(-c2ccncc2)n1)c1ccccc1 | 16.4 µM [falling, single point] | – |
| CCOC(=O)c1c(NC(=O)CCS(=O)(=O)c2ccccc2)sc2c1CCN(C(C)C)C2 | 35.5 µM [falling, single point] | – |
| CCN1C(=O)/C(=C2/Sc3ccccc3N2CC)S/C1=N\c1ncn[nH]1 | 12.6 µM [falling, partial curve, poor fit] | – |
| Cc1cccc(-n2c(O)c(C=Nc3ccc(O)cc3)c3ccccc3c2=O)n1 | 18.4 µM [rising, partial curve] | – |
| COc1ccc(COc2cccc3ccc(C)nc23)cc1F | 3.16 µM [rising, partial curve, poor fit] | – |
| CC1CCN(c2ncnc3c2cnn3Cc2ccc(Cl)cc2)CC1 | 2.51 µM [rising, partial curve, poor fit] | – |
| COc1cc(/C=C2\SC(=S)NC2=O)ccc1OS(=O)(=O)c1ccccc1 | 32.6 µM [falling, single point] | – |
| O=C(CN1CCN(S(=O)(=O)c2ccc(F)cc2)CC1)Nc1ccnn1C1CCCC1 | 18.4 µM [falling, single point] | – |
| S=C(NCc1ccncc1)Nc1ccc(Br)cc1Cl | 35.5 µM [falling, single point] | 17.8 µM [rising, single point] |
| c1ccc(-c2nn3nnnc3c3ccccc23)cc1 | 20.6 µM [rising, partial curve] | – |
| CCOc1ccc(CN2CCN(C3CCSCC3)CC2CCO)cc1 (stereo not drawn) | 2.24 µM [rising, partial curve] | – |
| CCOC(=O)[C@H]1[C@H]2COc3ccc(Br)cc3[C@@H]2N2C(=O)c3ccc(F)cc3NC(=O)[C@@]12C | 29.1 µM [falling, partial curve, poor fit] | – |
| Cc1ccc(CNC(=O)CCn2cc(-c3ccc(F)cc3)nc2-c2ccncc2)cc1 | 29.1 µM [falling, single point] | – |
| CCOC(=O)Cn1c(=O)oc2cc(S(=O)(=O)Nc3ccc(N(CC)CC)cc3C)ccc21 | 29.1 µM [falling, single point] | – |
| Cc1nnc(SCc2nnc(-c3ccccc3Br)o2)n1-c1ccccc1 | 32.6 µM [falling, partial curve, poor fit] | – |
| CCCn1c(C)cc(C(=O)COC(=O)c2c(C)nn(-c3ccccc3)c2C)c1C | 0.0058 µM [falling, full curve, poor fit] | – |
| CC1(C)Cc2c(sc3c2c(=N)n(Cc2ccco2)c(=O)n3CC(=O)Nc2ccc(Cl)cc2)CO1 | 32.6 µM [falling, single point] | – |
| CCN(CC(=O)Nc1ccc(NC(C)=O)cc1)C(=O)CCCN1C(=O)c2ccccc2C1=O | 0.517 µM [rising, partial curve, poor fit] | – |
| O=[N+]([O-])c1ccc(Sc2nnnn2-c2ccccc2)nc1 | 7.08 µM [falling, partial curve, poor fit] | 6.31 µM [falling, single point] |

| SMILES | AC50 [1] | AC50 [2] |
| --- | --- | --- |
| Cc1nn(C)c(C(=O)NNC(=S)NC2CCCCC2)c1Br | 31.6 µM [falling, single point] | – |
| Cc1nnc(-c2cccc(Br)c2)c2cn(-c3ccccc3Cl)nc12 | 2.51 µM [falling, partial curve, poor fit] | – |
| c1ccc(CN2CCN(c3nc(-c4ccccn4)nc4ccccc34)CC2)cc1 | 6.31 µM [rising, single point] | – |
| Cc1ccccc1OCC(=O)N1N=C(C(F)(F)F)CC1(O)C(C)(C)C (stereo not drawn) | 29.1 µM [rising, single point] | 25.9 µM [falling, partial curve, poor fit] |
| COc1ccccc1Oc1ccc(NC(=O)c2ccccc2C)cc1 | 1.26 µM [falling, partial curve, poor fit] | – |
| COc1ccccc1-c1cc(C(=O)NCc2ccccc2)no1 | 3.16 µM [falling, full curve] | – |
| CC(=O)N/N=C/c1ccccc1OCCOc1cccc(C)c1 | 17.8 µM [rising, partial curve, poor fit] | – |
| O=C(O)Cc1sc(N/N=C\c2ccncc2)nc1-c1ccccc1 | 7.08 µM [falling, partial curve] | – |
| O=C(CC1S/C(=N/N=C/c2cccnc2)NC1=O)Nc1ccccc1 (stereo not drawn) | 12.6 µM [falling, partial curve] | – |
| Cc1nn(-c2ccccc2)c2nc3c(cc12)C(=O)CCC3 | 6.51 µM [falling, partial curve] | 3.66 µM [rising, full curve, poor fit] |
| COC(=O)N1CCN(c2ccc(Cl)c(Cl)c2)CC1 | 29.1 µM [rising, single point] | – |
| COc1cccc(C=Nc2ccc3c(c2)CCC3)c1O | 14.1 µM [falling, partial curve, poor fit] | – |
| CCOC(=O)c1[nH]cnc1C(=O)Nc1ccc(F)cc1 | 11.2 µM [falling, single point] | – |
| COc1ccc(-c2nsc3c(N4CCCCC4)ncnc23)cc1 | 0.282 µM [rising, full curve, poor fit] | – |
| CCOC(=O)C(C)n1cnc2c(nnn2Cc2ccc(C)cc2)c1=O (stereo not drawn) | 20.6 µM [rising, partial curve] | – |
| CC(C)(C)C(=O)Nc1cccc(-c2nc3ccccc3[nH]2)c1 | 16.4 µM [falling, partial curve] | – |
| COc1ccc(Nc2ncnc3sc(-c4ccccc4)cc23)cc1OC | 6.51 µM [falling, partial curve, poor fit] | – |
| O=C(Cc1ccc(S(=O)(=O)N2CCCC2)s1)NC1CCCCCC1 | 0.206 µM [rising, full curve, poor fit] | – |
| COc1ccc2[nH]cc(/C=C/c3cc[n+](C)cc3)c2c1 | 4.47 µM [falling, full curve, poor fit] | 3.16 µM [rising, full curve, poor fit] |
| Cc1sc2ncnc(N3CCC(C(=O)N(C)CC(=O)Nc4ccc(Cl)c(C(F)(F)F)c4)CC3)c2c1C | 29.1 µM [falling, single point] | – |
| CCOC(=O)C(=Cc1ccc(-n2ccnc2)cc1)C(=O)OCC | 11.2 µM [falling, partial curve, poor fit] | 15.8 µM [rising, single point] |

| SMILES | AC50 [1] | AC50 [2] |
| --- | --- | --- |
| COc1ccccc1NS(=O)(=O)c1cccc(C(=O)OCC(=O)Nc2cc(C)on2)c1 | 11.2 µM [falling, partial curve, poor fit] | – |
| Cc1cc(S(=O)(=O)NC[C@H]2O[C@@H](n3cnc4c(N)ncnc43)[C@H](O)[C@@H]2O)c(C)s1 | 0.651 µM [rising, partial curve] | – |
| Cc1nn(-c2ccccc2)c2c1C(c1ccco1)C(C#N)=C(N)O2 (stereo not drawn) | 11.2 µM [falling, partial curve] | – |
| Cc1nc(-c2coc3cc(O)c(C)cc3c2=O)cs1 | 2.06 µM [falling, partial curve, poor fit] | – |
| CCOC(=O)c1sc(=NC(=O)COc2ccc(Cl)cc2)n(C)c1C | 35.5 µM [falling, partial curve, poor fit] | – |
| CCOc1ccc(Nc2cc(C)nc3nc(C)nn23)cc1 | 23.1 µM [falling, partial curve, poor fit] | – |
| Cc1ccc(/C=N/Nc2ccc(Cl)nn2)cc1 | 0.355 µM [rising, full curve, poor fit] | – |
| Cc1cccnc1NC(=O)c1ccc(S(=O)(=O)N2CCCCCC2)cc1 | 0.517 µM [falling, partial curve, poor fit] | – |
| COc1ccc2cc(C3CC(c4cccs4)=NN3S(C)(=O)=O)c(Cl)nc2c1 (stereo not drawn) | 23.1 µM [falling, single point] | 23.1 µM [falling, partial curve, poor fit] |
| CC(C)CC(CC(C)C)=NNC(=O)c1ccc2c(c1)OCO2 | 15.8 µM [falling, partial curve, poor fit] | – |
| COc1ccc(OC)c(-c2csc(NC(=O)Cc3ccc(F)cc3)n2)c1 | 2.82 µM [rising, partial curve, poor fit] | – |
| CCc1noc(C)c1C(=O)Nc1cccc(S(=O)(=O)N(C)c2ccccc2)c1 | 29.1 µM [falling, single point] | – |
| O=C(c1ccc(Br)o1)N1CC=C(c2ccccc2)CC1 | 1.46 µM [rising, full curve, poor fit] | – |
| Nc1ccccc1N=c1ssnc1Cl | 35.5 µM [falling, partial curve, poor fit] | – |
| O=C(COC(=O)CCc1ccc(S(=O)(=O)N2CCOCC2)cc1)NCc1ccc(Cl)cc1 | 2.82 µM [rising, full curve, poor fit] | – |
| CCOC(=O)c1c(CSc2cccs2)n(C)c2cc(Br)c(O)c(CN(C)C)c12 | 35.5 µM [falling, single point] | – |
| C(=N\Nc1nc2ccccc2[nH]1)/c1ccccc1 | 14.1 µM [falling, single point] | – |
| O=C(Nc1sc2c(c1C(=O)NCCCO)CCCC2)c1ccccc1 | 3.98 µM [falling, partial curve] | – |
| Cc1cc(=O)oc2cc(NC(=O)C(C)Oc3cccc(Cl)c3)ccc12 (stereo not drawn) | 11.6 µM [rising, single point] | – |

In the list so far, 2 contain a CF3 group.

| SMILES | AC50 [1] | AC50 [2] |
| --- | --- | --- |
| Cc1ccccc1OCC(=O)N1N=C(C(F)(F)F)CC1(O)C(C)(C)C (stereo not drawn) | 29.1 µM [rising, single point] | 25.9 µM [falling, partial curve, poor fit] |
| Cc1sc2ncnc(N3CCC(C(=O)N(C)CC(=O)Nc4ccc(Cl)c(C(F)(F)F)c4)CC3)c2c1C | 29.1 µM [falling, single point] | – |
